Cleaved PARP in drug-treated melanoma cells

Values as published with doi:10.1371/journal.pone.0140310, rounded.

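Human melanoma cells were exposed to a pair of drugs for 72 h in 1,536-well plates and read by automated microscopy after fixing and staining. Values are the share of nuclei positive for cleaved PARP as a percentage of the same share in the DMSO control: 100 is the control level, higher means more apoptosis. Every drug was used at one fixed concentration, the higher of two screened. These are primary screening values without error estimates. The marker varies much from line to line, for technical or biological reasons.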
Only some of the drugs and lines screened are listed, without regard to their results.
An entry leaves out what has no value listed here.
A dash means that no value is listed here.

First drug in all entries: VX-702, 2 µM, NC(=O)c1ccc(N(C(N)=O)c2c(F)cccc2F)nc1-c1ccc(F)cc1F

Drugs:
PF-04217903 (5 µM): OCCn1cc(-c2cnc3nnn(Cc4ccc5ncccc5c4)c3n2)cn1
SNS-032 (0.05 µM): CC(C)(C)c1cnc(CSc2cnc(NC(=O)C3CCNCC3)s2)o1
vatalanib (10 µM): Clc1ccc(Nc2nnc(Cc3ccncc3)c3ccccc23)cc1
veliparib (7 µM): C[C@]1(c2nc3c(C(N)=O)cccc3[nH]2)CCCN1
NVP-BEZ235 (0.02 µM): Cn1c(=O)n(-c2ccc(C(C)(C)C#N)cc2)c2c3cc(-c4cnc5ccccc5c4)ccc3ncc21
bexarotene (10 µM): C=C(c1ccc(C(=O)O)cc1)c1cc2c(cc1C)C(C)(C)CCC2(C)C
PLX4720 (0.4 µM): CCCS(=O)(=O)Nc1ccc(F)c(C(=O)c2c[nH]c3ncc(Cl)cc23)c1F

Cell line,PF-04217903,bexarotene,SNS-032,NVP-BEZ235,veliparib,vatalanib,PLX4720
COLO 829,67.2,234,39.2,166,102,94.0,210
G-361,104,99.2,89.1,308,170,107,273
IPC-298,129,37.7,124,116,50.8,150,31.8
MeWo,112,69.9,95.4,76.0,149,99.8,94.6
UACC-257,59.9,58.6,70.4,29.7,78.2,83.6,42.5
COLO 792,72.0,37.1,91.2,108,110,72.0,131
WM1745,83.1,93.6,106,111,110,166,228
LB2518-MEL,89.5,169,66.0,86.5,169,93.7,63.8
A375,-,181,-,76.3,139,62.7,42.0
COLO 800,148,70.2,215,81.4,141,53.8,87.8
MZ2-MEL,53.1,574,136,128,133,24.4,63.6
A2058,98.8,113,102,247,156,146,175
IST-MEL1,108,77.7,58.3,105,371,275,193
SK-MEL-2,58.8,150,160,84.4,204,70.0,108
WM3619,72.6,96.1,90.9,251,97.1,120,110
RPMI-7951,63.0,34.5,288,198,132,68.4,70.8
UACC-62,81.0,213,191,360,444,240,687
WM115,66.3,62.7,387,459,224,120,204
A101D,96.9,59.4,200,55.1,54.4,75.1,57.6
MEL-HO,71.0,100,45.5,65.4,132,191,98.1
RVH-421,91.6,245,50.2,154,60.9,55.6,307
C32,83.5,361,116,180,138,293,44.0
WM451Lu,67.8,81.6,267,148,147,43.4,263
SK-MEL-28,150,44.9,108,148,134,91.5,110
SK-MEL-5,150,31.1,113,283,199,312,337
WM1716,72.2,59.3,53.6,115,51.1,60.6,147
WM3526,139,162,121,73.5,81.0,252,253
LOX IMVI,22.7,210,175,133,125,125,56.2
SK-MEL-30,56.3,81.6,223,49.9,86.4,69.1,63.3

Once more, the final 2:

{"cell line": "LOX IMVI", "PF-04217903": 22.7, "bexarotene": 210, "SNS-032": 175, "NVP-BEZ235": 133, "veliparib": 125, "vatalanib": 125, "PLX4720": 56.2}
{"cell line": "SK-MEL-30", "PF-04217903": 56.3, "bexarotene": 81.6, "SNS-032": 223, "NVP-BEZ235": 49.9, "veliparib": 86.4, "vatalanib": 69.1, "PLX4720": 63.3}